Binding data for 1 molecule are collected here from article PMC3631182.

Common to all, as to test: two-hybrid; yeast; TnaA baits on the GAL4 DNA-binding domain (pGBKT7), Ubc9 or OsaC2 preys on the GAL4 activation domain (pGADT7); reporters ADE2 and HIS3, growth on QDO (SD-Trp/-Leu/-Ade/-His) with 3 mM 3-AT
Assay [1] has as its target TnaA_(SP-COO QLess) fragment (711-999 aa) fused to the GAL4 DNA-binding domain (Drosophila melanogaster).
The target of assay [2] is TnaA_(XSPRING2) fragment (379-927 aa) fused to the GAL4 DNA-binding domain (Drosophila melanogaster).
Assay [3] concerns the target TnaA_(QLess) fragment (306-696 aa) fused to the GAL4 DNA-binding domain (Drosophila melanogaster).

Results are given in words; binding and its absence hold for the method and conditions named. For part of these data: A result given as binding can be weak or reduced; the word gives no strength. Tags and fused reporters may be left off the sequences shown.

B1: OsaC2 fragment of Osa (amino acids 1951-2600) fused to the GAL4 activation domain (domain or fragment, UniProt Q8IN94 1951-2600)
chain: EERSLLLSFTPNYTMVTRKGVPVRIQPAENDIFVDERQKAWDIDTNRLYEQLEPVGSDAWTYGFTEPDPLDGIIDVFKSEIVNIPFARYIRSDKKGRKRTELASSSRKPEIKTEENSTEEQTFNKKRRLVSGGSSSSGAHAEGKKSKLTSEEFAQPNAEVKKEPGTADSDCRPVDMDIEAPQQRLTNGVAPCSSTPAIFDPRTTAKDEARVLQRRRDSSFEDECYTRDEASLHLVSESQDSLARRCIALSNIFRNLTFVPGNETVLAKSTRFLAVLGRLLLLNHEHLRRTPKTRNYDREEDTDFSDSCSSLQGEREWWWDYLITIRENMLVAMANIAGHLELSRYDELIARPLIDGLLHWAVCPSAHGQDPFPSCGPNSVLSPQRLALEALCKLCVTDANVDLVIATPPFSRLEKLCAVLTRHLCRNEDQVLREFSVNLLHYLAAADSAMARTVALQSPCISYLVAFIEQAEQTALGVANQHGINYLRENPDSMGTSLDMLRRAAGTLLHLAKHPDNRSLFMQQEQRLLGLVMSHILDQQVALIISRVLYQVSRGTGPIHSVEFRLLQQRQQQQLRPGPAGKQAASAGGSATVKAETASTETSSTEAKPAPAATTAVVNDENSNSSQQLPPAATFNDVSNSSTNSNSCGT
Take B1: the binding entry in assay [1] is given as “no binding”; in assay [2], “no binding”; in assay [3], “binds”.
